According to the supplement of paper PMC10849652:
Some of the results follow.

Amino acid sequences for entries named in this document (tags omitted). A change or cut given only in a name is not applied to a line headed by its entry.
UniProt Q96K37: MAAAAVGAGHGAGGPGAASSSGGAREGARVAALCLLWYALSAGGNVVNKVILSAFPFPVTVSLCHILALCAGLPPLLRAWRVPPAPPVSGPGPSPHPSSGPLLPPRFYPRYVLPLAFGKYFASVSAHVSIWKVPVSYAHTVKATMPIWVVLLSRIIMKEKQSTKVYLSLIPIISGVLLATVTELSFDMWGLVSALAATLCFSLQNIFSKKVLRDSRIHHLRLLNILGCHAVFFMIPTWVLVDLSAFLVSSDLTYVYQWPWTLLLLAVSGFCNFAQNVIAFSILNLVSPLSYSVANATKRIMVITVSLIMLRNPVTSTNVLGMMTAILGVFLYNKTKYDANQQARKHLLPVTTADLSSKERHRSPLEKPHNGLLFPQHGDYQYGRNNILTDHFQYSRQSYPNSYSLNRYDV
UniProt Q9UJS0: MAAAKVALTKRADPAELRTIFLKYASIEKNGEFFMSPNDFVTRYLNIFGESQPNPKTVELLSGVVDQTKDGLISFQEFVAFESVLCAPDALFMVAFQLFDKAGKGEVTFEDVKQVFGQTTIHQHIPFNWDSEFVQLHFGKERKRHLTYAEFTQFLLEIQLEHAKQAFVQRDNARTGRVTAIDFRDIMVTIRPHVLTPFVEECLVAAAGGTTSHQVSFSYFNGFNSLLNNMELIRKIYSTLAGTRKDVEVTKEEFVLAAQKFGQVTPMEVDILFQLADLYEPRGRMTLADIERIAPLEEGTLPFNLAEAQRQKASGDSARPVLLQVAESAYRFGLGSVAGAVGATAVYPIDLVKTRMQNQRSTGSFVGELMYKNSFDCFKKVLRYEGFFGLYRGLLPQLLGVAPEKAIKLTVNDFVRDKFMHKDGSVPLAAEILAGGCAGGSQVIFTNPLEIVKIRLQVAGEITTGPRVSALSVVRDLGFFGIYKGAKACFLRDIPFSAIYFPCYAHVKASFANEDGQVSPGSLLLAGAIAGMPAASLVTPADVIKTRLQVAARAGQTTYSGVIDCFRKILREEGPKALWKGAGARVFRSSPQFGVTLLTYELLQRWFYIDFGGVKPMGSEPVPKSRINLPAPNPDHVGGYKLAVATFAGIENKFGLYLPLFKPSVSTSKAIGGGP
UniProt O75746: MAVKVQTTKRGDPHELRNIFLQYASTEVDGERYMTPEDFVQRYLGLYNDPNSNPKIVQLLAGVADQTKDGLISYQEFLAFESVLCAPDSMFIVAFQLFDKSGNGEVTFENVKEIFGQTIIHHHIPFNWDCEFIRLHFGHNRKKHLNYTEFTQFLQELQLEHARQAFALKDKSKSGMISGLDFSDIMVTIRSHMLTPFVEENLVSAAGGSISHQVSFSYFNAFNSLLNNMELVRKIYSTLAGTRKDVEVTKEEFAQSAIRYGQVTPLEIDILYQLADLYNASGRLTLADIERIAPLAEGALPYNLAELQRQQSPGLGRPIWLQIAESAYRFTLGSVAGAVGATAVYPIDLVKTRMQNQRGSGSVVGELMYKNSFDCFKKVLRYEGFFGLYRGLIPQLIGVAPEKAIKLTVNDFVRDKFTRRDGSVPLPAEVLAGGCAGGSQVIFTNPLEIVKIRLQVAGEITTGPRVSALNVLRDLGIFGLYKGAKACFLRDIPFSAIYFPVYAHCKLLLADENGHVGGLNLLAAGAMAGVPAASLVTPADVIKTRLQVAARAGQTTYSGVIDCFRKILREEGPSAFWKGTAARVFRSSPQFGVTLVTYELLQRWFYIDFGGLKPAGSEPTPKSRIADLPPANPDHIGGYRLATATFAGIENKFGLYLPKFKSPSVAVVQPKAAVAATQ
UniProt Q9BRY0: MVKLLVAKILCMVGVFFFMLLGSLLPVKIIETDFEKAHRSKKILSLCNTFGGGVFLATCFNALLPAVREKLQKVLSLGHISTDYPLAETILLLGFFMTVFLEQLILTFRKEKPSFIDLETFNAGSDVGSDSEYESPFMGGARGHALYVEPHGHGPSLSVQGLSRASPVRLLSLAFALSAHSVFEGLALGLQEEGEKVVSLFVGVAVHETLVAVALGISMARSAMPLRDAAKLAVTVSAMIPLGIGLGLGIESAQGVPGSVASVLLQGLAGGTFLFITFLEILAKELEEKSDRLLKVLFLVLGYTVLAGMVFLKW
UniProt Q96DW6: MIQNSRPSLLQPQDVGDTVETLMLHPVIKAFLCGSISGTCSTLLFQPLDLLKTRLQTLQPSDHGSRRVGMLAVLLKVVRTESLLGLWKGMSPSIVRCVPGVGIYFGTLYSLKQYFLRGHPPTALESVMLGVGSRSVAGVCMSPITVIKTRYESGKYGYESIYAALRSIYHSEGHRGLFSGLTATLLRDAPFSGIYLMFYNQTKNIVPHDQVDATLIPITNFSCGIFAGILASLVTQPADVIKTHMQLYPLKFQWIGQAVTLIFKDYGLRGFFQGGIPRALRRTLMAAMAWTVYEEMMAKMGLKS
UniProt Q9C0K1: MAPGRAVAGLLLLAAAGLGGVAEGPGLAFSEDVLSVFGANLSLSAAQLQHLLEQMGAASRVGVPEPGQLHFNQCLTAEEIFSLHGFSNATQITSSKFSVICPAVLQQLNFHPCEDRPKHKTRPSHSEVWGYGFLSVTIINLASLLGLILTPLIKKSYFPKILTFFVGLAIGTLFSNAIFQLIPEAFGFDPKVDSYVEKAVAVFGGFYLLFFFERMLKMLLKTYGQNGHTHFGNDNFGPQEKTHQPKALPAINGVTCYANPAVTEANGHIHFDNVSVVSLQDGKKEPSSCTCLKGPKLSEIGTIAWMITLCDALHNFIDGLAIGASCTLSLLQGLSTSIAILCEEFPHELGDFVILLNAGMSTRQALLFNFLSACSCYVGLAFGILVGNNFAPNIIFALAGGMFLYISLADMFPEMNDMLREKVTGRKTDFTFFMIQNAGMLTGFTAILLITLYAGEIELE
UniProt Q8TBP6: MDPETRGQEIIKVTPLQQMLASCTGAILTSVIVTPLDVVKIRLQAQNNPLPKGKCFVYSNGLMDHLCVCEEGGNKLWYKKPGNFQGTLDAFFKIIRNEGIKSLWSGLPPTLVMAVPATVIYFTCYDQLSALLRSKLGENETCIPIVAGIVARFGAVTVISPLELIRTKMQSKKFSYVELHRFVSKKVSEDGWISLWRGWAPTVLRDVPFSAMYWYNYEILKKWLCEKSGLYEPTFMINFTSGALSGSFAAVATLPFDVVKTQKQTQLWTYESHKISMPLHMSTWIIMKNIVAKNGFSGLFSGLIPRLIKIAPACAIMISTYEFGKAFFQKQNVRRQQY
UniProt Q8TB61: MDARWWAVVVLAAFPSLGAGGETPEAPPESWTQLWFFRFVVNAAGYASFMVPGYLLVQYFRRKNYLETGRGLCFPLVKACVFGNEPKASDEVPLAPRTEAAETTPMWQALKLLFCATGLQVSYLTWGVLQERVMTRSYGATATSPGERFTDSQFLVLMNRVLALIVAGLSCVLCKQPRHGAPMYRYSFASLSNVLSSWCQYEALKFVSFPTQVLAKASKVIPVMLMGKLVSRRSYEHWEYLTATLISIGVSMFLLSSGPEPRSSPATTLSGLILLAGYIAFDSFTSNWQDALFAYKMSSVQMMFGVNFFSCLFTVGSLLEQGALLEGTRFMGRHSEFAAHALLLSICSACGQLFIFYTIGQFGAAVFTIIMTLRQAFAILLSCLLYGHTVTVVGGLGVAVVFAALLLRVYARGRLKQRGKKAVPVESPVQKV
UniProt Q8NEW0: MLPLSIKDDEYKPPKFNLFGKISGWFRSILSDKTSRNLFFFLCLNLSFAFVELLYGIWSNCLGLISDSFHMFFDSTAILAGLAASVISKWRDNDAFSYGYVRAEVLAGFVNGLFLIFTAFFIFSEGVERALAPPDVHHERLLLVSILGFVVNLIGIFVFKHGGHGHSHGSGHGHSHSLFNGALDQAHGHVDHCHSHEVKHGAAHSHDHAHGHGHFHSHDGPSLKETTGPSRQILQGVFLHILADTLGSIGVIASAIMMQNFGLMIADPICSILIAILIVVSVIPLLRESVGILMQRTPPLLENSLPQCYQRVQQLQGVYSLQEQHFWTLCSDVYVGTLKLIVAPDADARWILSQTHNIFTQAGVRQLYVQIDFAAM
UniProt Q9BQT8: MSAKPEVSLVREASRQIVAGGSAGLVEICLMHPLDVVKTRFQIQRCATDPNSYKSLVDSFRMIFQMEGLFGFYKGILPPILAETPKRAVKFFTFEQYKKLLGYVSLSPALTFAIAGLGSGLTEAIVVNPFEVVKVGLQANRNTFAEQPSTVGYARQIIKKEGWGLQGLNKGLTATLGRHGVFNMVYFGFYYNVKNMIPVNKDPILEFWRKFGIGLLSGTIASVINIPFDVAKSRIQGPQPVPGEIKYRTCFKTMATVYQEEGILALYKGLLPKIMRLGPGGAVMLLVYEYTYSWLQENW
UniProt Q02978: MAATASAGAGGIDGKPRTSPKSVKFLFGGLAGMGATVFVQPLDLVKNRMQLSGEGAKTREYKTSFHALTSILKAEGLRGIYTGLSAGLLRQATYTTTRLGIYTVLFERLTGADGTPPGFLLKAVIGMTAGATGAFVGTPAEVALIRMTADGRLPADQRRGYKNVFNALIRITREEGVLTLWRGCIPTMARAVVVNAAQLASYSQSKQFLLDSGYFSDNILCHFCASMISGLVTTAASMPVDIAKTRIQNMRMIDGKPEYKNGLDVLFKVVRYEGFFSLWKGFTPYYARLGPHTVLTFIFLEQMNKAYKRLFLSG
UniProt Q8NBI5: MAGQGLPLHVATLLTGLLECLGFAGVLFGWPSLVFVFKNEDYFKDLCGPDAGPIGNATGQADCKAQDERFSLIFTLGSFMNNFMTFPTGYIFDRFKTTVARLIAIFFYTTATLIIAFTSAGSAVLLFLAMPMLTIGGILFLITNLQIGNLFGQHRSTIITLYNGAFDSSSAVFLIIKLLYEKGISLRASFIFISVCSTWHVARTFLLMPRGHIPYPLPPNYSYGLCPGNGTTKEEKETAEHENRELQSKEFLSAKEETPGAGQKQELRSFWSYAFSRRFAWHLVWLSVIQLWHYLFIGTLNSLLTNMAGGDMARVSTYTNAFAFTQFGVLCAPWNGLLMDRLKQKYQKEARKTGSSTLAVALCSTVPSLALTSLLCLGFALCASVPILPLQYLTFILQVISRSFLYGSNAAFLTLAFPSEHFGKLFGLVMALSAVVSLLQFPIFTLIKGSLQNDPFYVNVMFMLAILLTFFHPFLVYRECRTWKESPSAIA
UniProt P48067: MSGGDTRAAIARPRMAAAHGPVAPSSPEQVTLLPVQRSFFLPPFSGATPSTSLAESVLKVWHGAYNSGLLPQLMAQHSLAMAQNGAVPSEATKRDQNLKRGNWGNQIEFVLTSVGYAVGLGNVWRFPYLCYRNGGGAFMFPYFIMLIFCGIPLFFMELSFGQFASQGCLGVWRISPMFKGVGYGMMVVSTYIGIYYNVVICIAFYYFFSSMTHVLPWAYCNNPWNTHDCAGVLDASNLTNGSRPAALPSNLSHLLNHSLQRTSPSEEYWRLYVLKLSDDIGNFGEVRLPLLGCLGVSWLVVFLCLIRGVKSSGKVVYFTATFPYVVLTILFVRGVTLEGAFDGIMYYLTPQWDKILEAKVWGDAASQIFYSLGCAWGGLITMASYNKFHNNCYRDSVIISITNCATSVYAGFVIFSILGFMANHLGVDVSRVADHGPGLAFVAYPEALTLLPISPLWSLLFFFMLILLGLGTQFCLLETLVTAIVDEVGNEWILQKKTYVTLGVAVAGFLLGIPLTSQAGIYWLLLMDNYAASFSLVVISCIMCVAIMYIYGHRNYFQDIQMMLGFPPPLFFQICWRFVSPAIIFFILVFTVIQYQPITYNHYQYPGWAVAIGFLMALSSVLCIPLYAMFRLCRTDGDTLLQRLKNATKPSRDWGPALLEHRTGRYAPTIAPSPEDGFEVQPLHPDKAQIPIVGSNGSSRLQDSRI
UniProt Q92504: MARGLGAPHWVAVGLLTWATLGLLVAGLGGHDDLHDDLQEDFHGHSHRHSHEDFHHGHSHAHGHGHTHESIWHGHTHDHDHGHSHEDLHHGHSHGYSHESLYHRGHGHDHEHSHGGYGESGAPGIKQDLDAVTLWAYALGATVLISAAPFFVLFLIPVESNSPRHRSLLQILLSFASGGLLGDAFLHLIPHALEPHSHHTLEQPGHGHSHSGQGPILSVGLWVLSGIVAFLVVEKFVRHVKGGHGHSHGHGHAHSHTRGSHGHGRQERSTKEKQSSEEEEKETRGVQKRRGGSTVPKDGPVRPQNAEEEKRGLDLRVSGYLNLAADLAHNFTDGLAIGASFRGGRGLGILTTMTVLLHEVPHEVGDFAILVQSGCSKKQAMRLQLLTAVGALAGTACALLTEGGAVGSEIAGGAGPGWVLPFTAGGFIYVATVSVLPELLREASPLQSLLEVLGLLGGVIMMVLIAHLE

Experiments:
Test in all cases: log2 fold change, soluble protein after heating vs DMSO (PISA); higher = thermal stabilisation; K562 cells, 10 uM, 30 min; active = over 0.2 and 3.5 SD of the protein, either way, in both replicates (recomputed)
erlotinib = compound: C#Cc1cccc(Nc2ncnc3cc(OCCOC)c(OCCOC)cc23)c1 [erlotinib]
Procedure, shortened: (§1)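 K562 cells (2×10^6 cells/mL) were treated with 10 μM compound for 30 min, and aliquots were heated for 3 min over 48°C-58°C. Pooled aliquots were extracted in PBS with 0.5% NP-40 at 4°C, and the supernatant after 21,000xg for 90 min was measured by TMTpro 16plex LC-MS/MS with channel sums equalised. Reported thermal stability, relative to control samples and from duplicates, is a log2 fold change.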

[1] = compound: C/C(=N\NC(=O)C1=CC(=CC=C1)S(=O)(=O)N2CCOCC2)/C3=C(C=CC(=C3)Cl)O
Procedure, shortened: as §1

[2] = compound: C1=CC(=C(C=C1Cl)C2=NC3=NC=CN=C3C(=N2)NC4=CC=NC=C4)F
Procedure, shortened: as §1

[3] = compound: C1=CC(=CC=C1C2=NC3=C(N2)C=C(C=C3)C(=O)N)OC4=CC=C(C=C4)Cl
Procedure, shortened: as §1

[4] = compound: C1=CC2=C(C=CC(=C2)/C=C\3/C(=O)NC(=NCC4=CC=CS4)S3)N=C1
Procedure, shortened: as §1

[5] = compound: C1=CC2=NC=CN=C2C=C1/C=C/3\C(=O)NC(=O)S3
Procedure, shortened: as §1

[6] = compound: C1=CC=C(C=C1)C2=NC(=C(N2)C3=CC=NC=C3)C4=CC(=C(C=C4)Cl)O
Procedure, shortened: as §1

[7] = compound: C1=CC=C2C(=C1)C3=NNC4=CC=CC(=C43)C2=O
Procedure, shortened: as §1

[8] = compound: C1CCN(C1)C(=O)NC2=CC=CC(=C2)NC3=NC=C(C(=N3)NCCC4=CN=CN4)Br
Procedure, shortened: as §1

[9] = compound: C1CN(CCC1(CC2=CC=C(C=C2)Cl)N)C3=NC=NC4=C3C=CN4
Procedure, shortened: as §1

Measured: log2 fold change

SLC35E1 (UniProt Q96K37)
inactive: erlotinib -0.077 | [1] -0.035 | [2] 0.03 | [3] -0.008 | [4] 0.011 | [5] 0.062 | [6] 0.033 | [7] -0.099 | [8] -0.032 | [9] -0.021

SLC25A13 isoform 2 (UniProt Q9UJS0)
inactive: erlotinib 0.023 | [1] 0.002 | [2] 0.019 | [3] 0.001 | [4] -0.024 | [5] -0.001 | [6] 0.015 | [7] 0.003 | [8] 0.016 | [9] 0.04

SLC25A12 (UniProt O75746)
inactive: erlotinib 0.013 | [1] 0.008 | [2] 0.034 | [3] -0.002 | [4] -0.005 | [5] 0.027 | [6] 0 | [7] -0.016 | [8] 0.017 | [9] 0.037

SLC39A3 (UniProt Q9BRY0)
inactive: erlotinib -0.042 | [1] 0.075 | [2] -0.054 | [3] 0.054 | [4] 0.087 | [5] 0.06 | [6] -0.032 | [7] -0.067 | [8] -0.007 | [9] -0.011

SLC25A38 (UniProt Q96DW6)
inactive: erlotinib 0.007 | [1] -0.001 | [2] -0.023 | [3] -0.036 | [4] 0.129 | [5] 0.054 | [6] 0.023 | [7] 0.005 | [8] -0.005 | [9] 0.055

SLC39A8 (UniProt Q9C0K1)
inactive: erlotinib 0.022 | [1] -0.012 | [2] -0.069 | [3] 0.018 | [4] -0.012 | [5] 0.052 | [6] 0.03 | [7] 0.029 | [8] -0.007 | [9] 0.07

SLC25A40 (UniProt Q8TBP6)
inactive: erlotinib -0.053 | [1] 0.022 | [2] 0.048 | [3] -0.029 | [4] -0.015 | [5] 0.043 | [6] -0.007 | [7] -0.005 | [8] -0.069 | [9] 0.029

SLC35B2 (UniProt Q8TB61)
inactive: erlotinib 0.033 | [1] 0.013 | [2] 0.105 | [3] -0.007 | [4] 0.026 | [5] 0.028 | [6] 0.043 | [7] -0.054 | [8] 0.043 | [9] 0.024

SLC30A7 (UniProt Q8NEW0)
inactive: erlotinib -0.004 | [1] 0.175 | [2] 0.062 | [3] 0.006 | [4] -0.086 | [5] 0.077 | [6] 0.109 | [7] 0.004 | [8] 0.016 | [9] 0.132

SLC25A21 (UniProt Q9BQT8)
inactive: erlotinib -0.037 | [1] 0.012 | [2] 0.038 | [3] 0.026 | [4] 0 | [5] 0.029 | [6] -0.054 | [7] -0.015 | [8] 0.055 | [9] 0.057

2 entries drawn at random from the list so far:
SLC25A12 (UniProt O75746)
inactive: erlotinib 0.013 | [1] 0.008 | [2] 0.034 | [3] -0.002 | [4] -0.005 | [5] 0.027 | [6] 0 | [7] -0.016 | [8] 0.017 | [9] 0.037

SLC25A38 (UniProt Q96DW6)
inactive: erlotinib 0.007 | [1] -0.001 | [2] -0.023 | [3] -0.036 | [4] 0.129 | [5] 0.054 | [6] 0.023 | [7] 0.005 | [8] -0.005 | [9] 0.055

The list goes on.

SLC25A11 (UniProt Q02978)
inactive: erlotinib -0.007 | [1] -0.012 | [2] 0.034 | [3] 0.017 | [4] -0.012 | [5] 0.039 | [6] -0.009 | [7] -0.042 | [8] 0.002 | [9] 0.053

SLC43A3 isoform 2 (UniProt Q8NBI5)
inactive: erlotinib 0.002 | [1] -0.031 | [2] -0.027 | [3] 0 | [4] 0.043 | [5] 0.021 | [6] -0.042 | [7] -0.089 | [8] -0.027 | [9] 0.078

SLC6A9 (UniProt P48067)
inactive: erlotinib 0.03 | [1] 0.053 | [3] -0.048 | [4] 0.029 | [5] 0.181 | [6] 0.005 | [7] -0.082 | [8] -0.104 | [9] 0.115

SLC39A7 (UniProt Q92504)
inactive: erlotinib -0.032 | [1] -0.051 | [2] -0.025 | [3] 0.012 | [4] 0.045 | [5] 0.032 | [6] -0.011 | [7] 0.013 | [8] 0 | [9] 0.021
